Each structure is given as a SMILES string. The structures given here were assigned with low confidence; some may be wrong.

The chains behind the UniProt entries cited, without tags or fusion partners.
UniProt P33981, whole entry: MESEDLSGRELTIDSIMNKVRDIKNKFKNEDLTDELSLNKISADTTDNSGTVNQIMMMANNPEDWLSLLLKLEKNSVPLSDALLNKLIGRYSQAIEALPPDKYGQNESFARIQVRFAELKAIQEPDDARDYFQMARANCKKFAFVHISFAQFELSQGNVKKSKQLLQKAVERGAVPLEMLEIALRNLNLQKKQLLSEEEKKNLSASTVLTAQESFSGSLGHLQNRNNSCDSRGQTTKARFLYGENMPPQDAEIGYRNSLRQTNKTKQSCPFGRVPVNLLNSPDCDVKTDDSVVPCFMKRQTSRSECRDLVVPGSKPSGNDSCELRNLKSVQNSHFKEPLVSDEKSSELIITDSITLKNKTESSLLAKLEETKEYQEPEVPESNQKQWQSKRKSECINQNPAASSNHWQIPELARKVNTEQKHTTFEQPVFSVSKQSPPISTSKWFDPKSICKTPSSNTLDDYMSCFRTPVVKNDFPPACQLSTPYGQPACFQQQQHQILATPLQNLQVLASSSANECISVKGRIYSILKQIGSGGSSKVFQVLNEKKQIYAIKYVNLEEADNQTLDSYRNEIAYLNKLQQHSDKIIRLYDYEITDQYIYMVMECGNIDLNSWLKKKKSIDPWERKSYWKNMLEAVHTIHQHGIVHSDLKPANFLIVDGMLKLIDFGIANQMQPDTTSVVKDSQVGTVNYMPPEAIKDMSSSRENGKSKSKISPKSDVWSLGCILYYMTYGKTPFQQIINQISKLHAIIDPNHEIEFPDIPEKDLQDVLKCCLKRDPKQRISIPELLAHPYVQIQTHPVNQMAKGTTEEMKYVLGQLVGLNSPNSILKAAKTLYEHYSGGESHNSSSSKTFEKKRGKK

The target of the experiment is human kinase Mps-1 (Homo sapiens (Human), UniProt P33981). Description: Mps-1 kinase assay (TR-FRET). It counts as biochemical. Conditions: read-out: Mps1 IC50; N-terminally GST-tagged human full length recombinant Mps-1; 10 μM ATP; 1 μM biotinylated peptide substrate.

Take `COc1ccc(Oc2cc(NCC3CCOCC3)c3ncn(-c4ccc(C(=O)NC5CC5)c(C)c4)c3c2)c(F)c1`: the IC50 (commonly the concentration needed to halve the response being measured) is 0.4 nM.

These data come from patent US9388140B2, “Substituted benzimidazoles” (priority 2011, dated 2016).
